For at least one entry, the source does not settle the construct or the ends of the probe. For some assays here: Negatives hold for the conditions tested. For some assays here: Where cells or extracts were used, other partners may take part. For some assays here: At least one verdict was read from the data and is not stated in words by the source.
Key:
[1] = target: Estrogen receptor alpha (ERα) (human) (UniProt P03372); assay: ITC; settings: ITC: 10 mM Tris-HCl pH 8.0, 25 °C, 1 µM ERα in cell, 10 µM RNA in syringe
ERα LBD (human) = ERα LBD (human) (UniProt P03372); assay: aptamer-assisted ELISA; settings: ELISA: 100 nM biotinylated ERaptR4, 2 h
[2] = tested on: Progesterone receptor DBD; assay: aptamer-assisted ELISA; settings: insignificant binding; ELISA: 100 nM biotinylated ERaptR4, 2 h
[3] = tested on: Progesterone receptor LBD; assay: aptamer-assisted ELISA; settings: insignificant binding; ELISA: 100 nM biotinylated ERaptR4, 2 h
[4] = target: ERα in MCF-7 nuclear extract (human (MCF-7)) (UniProt P03372); assay: aptamer-assisted western blot; settings: western blot: 1 µM ERaptR4; protein in an extract

Sequences of proteins named here, by UniProt entry; tags and fusion partners are left off. Residues count along the entry.
UniProt P03372, whole entry: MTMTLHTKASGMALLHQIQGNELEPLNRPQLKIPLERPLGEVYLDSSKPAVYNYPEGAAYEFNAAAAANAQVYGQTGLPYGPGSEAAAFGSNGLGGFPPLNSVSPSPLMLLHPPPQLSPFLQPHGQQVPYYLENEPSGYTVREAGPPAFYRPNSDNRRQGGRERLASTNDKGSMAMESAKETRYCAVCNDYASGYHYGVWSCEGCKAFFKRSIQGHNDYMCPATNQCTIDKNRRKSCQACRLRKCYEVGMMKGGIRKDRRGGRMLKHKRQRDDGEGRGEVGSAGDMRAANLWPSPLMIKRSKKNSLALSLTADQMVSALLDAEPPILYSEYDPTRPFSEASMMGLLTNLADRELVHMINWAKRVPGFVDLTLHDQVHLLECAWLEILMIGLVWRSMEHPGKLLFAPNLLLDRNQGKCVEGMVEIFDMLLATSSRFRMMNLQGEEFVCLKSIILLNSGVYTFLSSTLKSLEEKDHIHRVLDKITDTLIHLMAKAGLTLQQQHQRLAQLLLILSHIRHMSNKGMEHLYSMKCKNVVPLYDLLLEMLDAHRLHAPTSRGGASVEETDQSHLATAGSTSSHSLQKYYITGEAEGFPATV
UniProt P03372, 311-547: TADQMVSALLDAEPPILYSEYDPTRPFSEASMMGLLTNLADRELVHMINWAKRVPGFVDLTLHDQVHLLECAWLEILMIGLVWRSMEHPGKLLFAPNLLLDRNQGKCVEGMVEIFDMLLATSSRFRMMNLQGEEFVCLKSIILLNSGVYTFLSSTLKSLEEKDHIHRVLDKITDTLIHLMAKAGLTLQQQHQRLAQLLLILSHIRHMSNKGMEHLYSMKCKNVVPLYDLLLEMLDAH

AUCGUGUGCUGCUACGA [random 17-mer RNA]: no binding [1].

“GGGGUCAAGGUGACCCC [biotinylated ERaptR4]”: binds (ERα LBD (human)); no binding [2]; no binding [3]. “GGGGUCAAGGUGACCCC [biotinylated ERaptR4]”: binds [4].

Reference: article PMC4761961
